# Measured data: PubChem BioAssay AID652259 (Drosophila RNAi Screening Center, 2013)
# Test: 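Identify new Wingless signalling regulators in fly cells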 (primary screen)
# Cells: Drosophila clone 8 imaginal disc epithelial cells
# Reagents: long dsRNA against Drosophila genes
# Conditions: pathway stimulated by co-transfected Wingless expression plasmid
# Read-out: 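Dual luciferase reads per well after Wingless plasmid stimulation: reporter firefly light and Renilla control light; activity is firefly divided by Renilla, a ratio not deposited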
# Scale: firefly reporter light: higher = more Wg reporter light, before normalisation; Renilla control light: higher = more transfected or surviving cells
# Hit rule: 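Strong candidates differ from their plate mean by at least two out of four per-plate statistical tests; weak candidates meet just one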
# Meaning of the calls: active = candidate regulator (raises or lowers reporter); inactive = not a candidate
# The screen tested about 22,000 reagents; this is an unselected part of those that have a named target and a result. Of all reagents, 233 (1.1%) were called active. 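Light values are raw, unnormalised plate reads; the ratio scores behind the reporter calls were not deposited.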 Entries without a mark were called inactive. Reagents against one gene are numbered here. Names joined by + are all predicted targets of the reagent. Reagent sequences are not shown. The record does not give: the amount of reagent, the time to read-out, the dose of the treatment.
target,reagent,"reporter change call, replicate 1","firefly reporter light, replicate 1","firefly reporter light, replicate 2","Renilla control light, replicate 1","Renilla control light, replicate 2"
CG11842,1,,4512,10490,2148,1493
cv-d (crossveinless d),1,,2130,5104,1160,1061
cv-d (crossveinless d),2,,9472,,1865,
cv-d (crossveinless d),3,,17473,,3243,
CG10300,1,,12728,,10610,
rnh1 (ribonuclease H1),1,,2465,7920,743,2832
Alh (Alhambra),1,,3223,,404,
Alh (Alhambra),2,Wg reporter activity raised,30736,,3109,
Alh (Alhambra),3,,24221,,3360,
"Trpm (Transient receptor potential cation channel, subfamily M)",1,,9420,,1625,
"Trpm (Transient receptor potential cation channel, subfamily M)",2,,5.10e5,5.11e5,2.43e5,1.76e5
CG3703,1,,31123,,16295,
CG3703,2,,18987,,13866,
CG3703,3,,22528,,13648,
CG17193,1,,16826,,4133,
Nup160 (Nucleoporin 160kD),1,,3271,9200,680,2992
CG4945,1,,12920,,3792,
CG7137,1,,14505,,3984,
CG42284,1,,6.00e5,6.05e5,2.19e5,2.13e5
CG42284,2,,5.18e5,5.28e5,1.54e5,1.73e5
CG3558,1,,14300,,4856,
Hsp70Bb + Hsp70Ba + Hsp70Bc + 1 more,1,,14939,,5352,
Hsp70Bb + Hsp70Ba + Hsp70Bc + 1 more,2,,17340,,6661,
wuho,1,,15653,,8368,
CG3776,1,,10652,,3824,

No new results follow: entries from further up.
target,reagent,"reporter change call, replicate 1","firefly reporter light, replicate 1","firefly reporter light, replicate 2","Renilla control light, replicate 1","Renilla control light, replicate 2"
Alh (Alhambra),2,Wg reporter activity raised,30736,,3109,
Alh (Alhambra),3,,24221,,3360,
"Trpm (Transient receptor potential cation channel, subfamily M)",1,,9420,,1625,
"Trpm (Transient receptor potential cation channel, subfamily M)",2,,5.10e5,5.11e5,2.43e5,1.76e5
CG3703,1,,31123,,16295,
CG3703,2,,18987,,13866,
CG3703,3,,22528,,13648,

The listing continues:
target,reagent,"reporter change call, replicate 1","firefly reporter light, replicate 1","firefly reporter light, replicate 2","Renilla control light, replicate 1","Renilla control light, replicate 2"
CG12118,1,,2381,7200,933,1808
CG1909,1,,2944,9083,672,2752
Rpt6 (Regulatory particle triple-A ATPase 6),1,,2225,6876,598,2544
CG10352,1,,11347,,7210,
CG13114,1,,3931,7863,1368,3392
Xxylt (Xyloside xylosyltransferase),1,,11837,,3921,
CG1275,1,,18039,,4172,
sls (sallimus),1,,15717,,4218,
sls (sallimus),2,,5520,,2613,
sls (sallimus),3,,6133,,3191,
Snm1,1,,8294,,2256,
kune (kune-kune),1,,2761,5440,834,2396
robl22E,1,,2790,8028,1128,2875
fzo (fuzzy onions),1,,10711,,11593,
SelR (Selenoprotein R),1,,19168,,4795,
CG13744,1,,3216,7716,1385,3312
CG31601,1,,13401,,6384,
CG32188,1,,2263,,1074,
CG6429,1,,4551,,2192,
CG2964,1,,3121,8092,1170,2784
Golgin97 (Golgin 97),1,,17276,,5194,
CG1387,1,,2716,9447,873,2011
Vha26 (Vacuolar H[+]-ATPase 26kD subunit),1,,8037,,2784,
CG16852,1,,2112,7568,1148,2642
Miga (Mitoguardin),1,,22347,,11291,
CG9436,1,,10477,,2001,
CG2663,1,,7904,,1958,
"Polr2L (RNA polymerase II, I and III subunit L)",1,,20560,,10512,
CG6012,1,,3372,5825,1186,2769
Vha36-3 (Vacuolar H[+] ATPase 36kD subunit 3),1,,13701,,16903,
CG13991,1,,2482,5525,968,2352
CG13230,1,,5552,,3440,
Nckx30C,1,,2773,6304,937,2601
Nckx30C,2,,2323,10418,1110,3945
Nckx30C,3,,2073,6819,1034,3271
Nckx30C,4,,3016,8369,597,2467
RpS28a (Ribosomal protein S28a),1,,8422,,3849,
CG11309,1,,4386,,1312,
Pfrx (6-phosphofructo-2-kinase),1,,20928,,11124,
Pfrx (6-phosphofructo-2-kinase),2,,5082,,1568,
Ctr9,1,,15227,,3320,
Golgin104 (Golgin 104),1,,3462,,1528,
CG43133,1,,3632,,1069,
CG13678,1,,3869,,1250,
CG10132,1,,9196,,2691,
Crtp (Caldesmon-related protein),1,,3632,9561,955,3062
CG43123,1,,23388,,8196,
ftz (fushi tarazu),1,,19793,,6672,
